The results in this text go back to paper PMC7274033.

Sequences of proteins named here, by UniProt entry; tags and fusion partners are left off.
UniProt Q9QZL0: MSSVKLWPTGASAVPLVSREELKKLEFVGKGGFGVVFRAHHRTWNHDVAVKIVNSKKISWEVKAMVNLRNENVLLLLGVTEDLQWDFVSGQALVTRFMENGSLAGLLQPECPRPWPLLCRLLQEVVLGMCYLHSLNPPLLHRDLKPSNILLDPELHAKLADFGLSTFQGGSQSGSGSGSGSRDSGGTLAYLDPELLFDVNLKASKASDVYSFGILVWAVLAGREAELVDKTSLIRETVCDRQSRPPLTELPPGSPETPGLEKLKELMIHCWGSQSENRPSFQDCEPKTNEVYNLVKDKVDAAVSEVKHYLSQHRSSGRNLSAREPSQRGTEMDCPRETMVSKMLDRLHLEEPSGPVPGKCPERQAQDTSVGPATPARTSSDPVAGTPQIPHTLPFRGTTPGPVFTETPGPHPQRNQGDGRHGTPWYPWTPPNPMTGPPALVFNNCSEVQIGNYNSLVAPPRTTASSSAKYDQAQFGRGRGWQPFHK

For assay [1], the target named is T1, ASC (apoptosis-associated speck-like protein containing a CARD), endogenous in BMDMs (mouse (endogenous in BMDMs)) (UniProt Q9EPB4).
T1 sequence: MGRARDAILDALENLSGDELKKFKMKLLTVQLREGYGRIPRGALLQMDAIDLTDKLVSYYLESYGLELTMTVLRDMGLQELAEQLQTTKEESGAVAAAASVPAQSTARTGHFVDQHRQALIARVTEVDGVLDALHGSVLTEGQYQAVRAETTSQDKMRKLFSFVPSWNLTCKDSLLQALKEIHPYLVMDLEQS
As to the kind of experiment: co-IP; endogenous proteins of primary BMDMs stimulated 4 h with LPS (100 ng/mL) + TAK1 inhibitor 5Z-7-oxozeaenol (0.1 uM), without zVAD; NP-40 lysis buffer; RIPK1 or ASC immunoprecipitated, protein A/G plus agarose; immunoblot.

The target of assay [2] is T2, RIPK1 (RIP kinase 1), endogenous in BMDMs (mouse (endogenous in BMDMs)) (UniProt Q60855).
T2 sequence: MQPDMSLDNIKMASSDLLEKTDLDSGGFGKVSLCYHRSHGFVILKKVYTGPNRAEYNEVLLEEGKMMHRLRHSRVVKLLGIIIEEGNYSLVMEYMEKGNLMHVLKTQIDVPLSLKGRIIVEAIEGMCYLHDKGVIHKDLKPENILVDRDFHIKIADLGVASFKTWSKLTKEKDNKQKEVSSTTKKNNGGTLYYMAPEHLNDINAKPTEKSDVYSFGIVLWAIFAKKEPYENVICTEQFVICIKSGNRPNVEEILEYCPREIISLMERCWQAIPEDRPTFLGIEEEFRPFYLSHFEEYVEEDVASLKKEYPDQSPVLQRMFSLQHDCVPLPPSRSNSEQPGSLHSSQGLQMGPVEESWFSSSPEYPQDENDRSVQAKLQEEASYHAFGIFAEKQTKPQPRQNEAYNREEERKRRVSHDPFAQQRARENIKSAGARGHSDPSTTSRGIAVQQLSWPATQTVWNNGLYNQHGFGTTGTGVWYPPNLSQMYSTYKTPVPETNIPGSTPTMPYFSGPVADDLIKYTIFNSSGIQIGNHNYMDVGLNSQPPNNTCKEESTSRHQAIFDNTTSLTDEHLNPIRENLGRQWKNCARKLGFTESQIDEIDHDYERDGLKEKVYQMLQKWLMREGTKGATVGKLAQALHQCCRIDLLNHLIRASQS
The description is as above.

Assay [3] addresses T2, RIPK1 (RIP kinase 1), endogenous in BMDMs (mouse (endogenous in BMDMs)). The assay is described as follows: co-IP; endogenous proteins of primary BMDMs stimulated 4 h with LPS (100 ng/mL) + TAK1 inhibitor 5Z-7-oxozeaenol (0.1 uM) + zVAD; NP-40 lysis buffer; RIPK1 or ASC immunoprecipitated overnight at 4°C, protein A/G plus agarose; immunoblot.
The target of assay [4] is T3, ASC (apoptosis-associated speck-like protein containing a CARD), endogenous in BMDMs (mouse (endogenous in BMDMs)), Q9EPB4.
T3 chain: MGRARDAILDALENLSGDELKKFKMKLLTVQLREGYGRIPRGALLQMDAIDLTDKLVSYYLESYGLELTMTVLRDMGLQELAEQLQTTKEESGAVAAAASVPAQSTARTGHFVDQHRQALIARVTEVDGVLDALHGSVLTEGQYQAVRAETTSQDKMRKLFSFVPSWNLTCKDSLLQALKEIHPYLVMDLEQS
The assay is described as above. Particulars: remark: other sources report otherwise.

Assay [5] deals with RIPK3-GFP (receptor-interacting serine/threonine-protein kinase 3) (UniProt Q9QZL0). As to the kind of experiment: co-IP; HEK293T co-transfected (600 ng each, 30 h) with ASC-turboGFP, CASP8, FLAG-NLRP3, RIPK1 and mCherry-ZBP1 with or without RIPK3-GFP; zVAD-fmk; RIPK3 immunoprecipitated; NP-40 lysis buffer; protein A/G-plus agarose; immunoblot.
Assay [6] addresses RIPK3-GFP (receptor-interacting serine/threonine-protein kinase 3), Q9QZL0. The description is as above. Particulars: remark: other sources report otherwise.
For assay [7], the target named is T1, ASC (apoptosis-associated speck-like protein containing a CARD), endogenous in BMDMs (mouse (endogenous in BMDMs)). As to the kind of experiment: co-IP; endogenous proteins of primary BMDMs stimulated 4 h with LPS (100 ng/mL) + TAK1 inhibitor 5Z-7-oxozeaenol (0.1 uM) + zVAD; NP-40 lysis buffer; RIPK1 or ASC immunoprecipitated overnight at 4°C, protein A/G plus agarose; immunoblot.

Results are given in words; binding and its absence hold for the method and conditions named. Binding seen in cells or lysates may run through a third protein. Some binding calls cover weakened binding; strength is not graded here. For some assays here: Where a sequence is shown, tags or fusion partners need not be part of it.

B1: CASP8 (caspase-8), endogenous in BMDMs (protein, UniProt O89110 1-480)
chain: MDFQSCLYAIAEELGSEDLAALKFLCLDYIPHKKQETIEDAQKLFLRLREKGMLEEGNLSFLKELLFHISRWDLLVNFLDCNREEMVRELRDPDNAQISPYRVMLFKLSEEVSELELRSFKFLLNNEIPKCKLEDDLSLLEIFVEMEKRTMLAENNLETLKSICDQVNKSLLGKIEDYERSSTERRMSLEGREELPPSVLDEMSLKMAELCDSPREQDSESRTSDKVYQMKNKPRGYCLIINNHDFSKAREDITQLRKMKDRKGTDCDKEALSKTFKELHFEIVSYDDCTANEIHEILEGYQSADHKNKDCFICCILSHGDKGVVYGTDGKEASIYDLTSYFTGSKCPSLSGKPKIFFIQACQGSNFQKGVPDEAGFEQQNHTLEVDSSSHKNYIPDEADFLLGMATVKNCVSYRDPVNGTWYIQSLCQSLRERCPQGDDILSILTGVNYDVSNKDDRRNKGKQMPQPTFTLRKKLFFPP
As to B1, the binding result is given as “binds weakly” in assay [1], “binds weakly” in assay [2] and “binds” in assay [3].

B2: CASP8 (caspase-8), endogenous in BMDMs, O89110 1-480 (protein)
chain: MDFQSCLYAIAEELGSEDLAALKFLCLDYIPHKKQETIEDAQKLFLRLREKGMLEEGNLSFLKELLFHISRWDLLVNFLDCNREEMVRELRDPDNAQISPYRVMLFKLSEEVSELELRSFKFLLNNEIPKCKLEDDLSLLEIFVEMEKRTMLAENNLETLKSICDQVNKSLLGKIEDYERSSTERRMSLEGREELPPSVLDEMSLKMAELCDSPREQDSESRTSDKVYQMKNKPRGYCLIINNHDFSKAREDITQLRKMKDRKGTDCDKEALSKTFKELHFEIVSYDDCTANEIHEILEGYQSADHKNKDCFICCILSHGDKGVVYGTDGKEASIYDLTSYFTGSKCPSLSGKPKIFFIQACQGSNFQKGVPDEAGFEQQNHTLEVDSSSHKNYIPDEADFLLGMATVKNCVSYRDPVNGTWYIQSLCQSLRERCPQGDDILSILTGVNYDVSNKDDRRNKGKQMPQPTFTLRKKLFFPP
On to B2, for which the binding entry in assay [4] is reported as “binds”.

B3: CASP8 (caspase-8), expressed from pCDH-CMV-CASP8 (protein, UniProt O89110 1-480)
chain: MDFQSCLYAIAEELGSEDLAALKFLCLDYIPHKKQETIEDAQKLFLRLREKGMLEEGNLSFLKELLFHISRWDLLVNFLDCNREEMVRELRDPDNAQISPYRVMLFKLSEEVSELELRSFKFLLNNEIPKCKLEDDLSLLEIFVEMEKRTMLAENNLETLKSICDQVNKSLLGKIEDYERSSTERRMSLEGREELPPSVLDEMSLKMAELCDSPREQDSESRTSDKVYQMKNKPRGYCLIINNHDFSKAREDITQLRKMKDRKGTDCDKEALSKTFKELHFEIVSYDDCTANEIHEILEGYQSADHKNKDCFICCILSHGDKGVVYGTDGKEASIYDLTSYFTGSKCPSLSGKPKIFFIQACQGSNFQKGVPDEAGFEQQNHTLEVDSSSHKNYIPDEADFLLGMATVKNCVSYRDPVNGTWYIQSLCQSLRERCPQGDDILSILTGVNYDVSNKDDRRNKGKQMPQPTFTLRKKLFFPP
On to B3, for which, in assay [5], the binding entry is reported as “binds”.

B4: RIPK1 (RIP kinase 1), expressed from pCMV-mRIPK1, Q60855 1-656 (protein)
chain: MQPDMSLDNIKMASSDLLEKTDLDSGGFGKVSLCYHRSHGFVILKKVYTGPNRAEYNEVLLEEGKMMHRLRHSRVVKLLGIIIEEGNYSLVMEYMEKGNLMHVLKTQIDVPLSLKGRIIVEAIEGMCYLHDKGVIHKDLKPENILVDRDFHIKIADLGVASFKTWSKLTKEKDNKQKEVSSTTKKNNGGTLYYMAPEHLNDINAKPTEKSDVYSFGIVLWAIFAKKEPYENVICTEQFVICIKSGNRPNVEEILEYCPREIISLMERCWQAIPEDRPTFLGIEEEFRPFYLSHFEEYVEEDVASLKKEYPDQSPVLQRMFSLQHDCVPLPPSRSNSEQPGSLHSSQGLQMGPVEESWFSSSPEYPQDENDRSVQAKLQEEASYHAFGIFAEKQTKPQPRQNEAYNREEERKRRVSHDPFAQQRARENIKSAGARGHSDPSTTSRGIAVQQLSWPATQTVWNNGLYNQHGFGTTGTGVWYPPNLSQMYSTYKTPVPETNIPGSTPTMPYFSGPVADDLIKYTIFNSSGIQIGNHNYMDVGLNSQPPNNTCKEESTSRHQAIFDNTTSLTDEHLNPIRENLGRQWKNCARKLGFTESQIDEIDHDYERDGLKEKVYQMLQKWLMREGTKGATVGKLAQALHQCCRIDLLNHLIRASQS
Regarding B4, the binding entry in assay [6] is “binds”.

B5: ASC-turboGFP (apoptosis-associated speck-like protein containing a CARD), expressed from pCMV6-mASC-turboGFP, Q9EPB4 1-193 (protein)
chain: MGRARDAILDALENLSGDELKKFKMKLLTVQLREGYGRIPRGALLQMDAIDLTDKLVSYYLESYGLELTMTVLRDMGLQELAEQLQTTKEESGAVAAAASVPAQSTARTGHFVDQHRQALIARVTEVDGVLDALHGSVLTEGQYQAVRAETTSQDKMRKLFSFVPSWNLTCKDSLLQALKEIHPYLVMDLEQS
Turning to B5, in assay [6], the binding entry is on record as “binds”.

B6: FADD, endogenous in BMDMs (protein, UniProt Q61160 1-205)
chain: MDPFLVLLHSLSGSLSGNDLMELKFLCRERVSKRKLERVQSGLDLFTVLLEQNDLERGHTGLLRELLASLRRHDLLQRLDDFEAGTATAAPPGEADLQVAFDIVCDNVGRDWKRLARELKVSEAKMDGIEEKYPRSLSERVRESLKVWKNAEKKNASVAGLVKALRTCRLNLVADLVEEAQESVSKSENMSPVLRDSTVSSSETP
In the case of B6, the binding entry in assay [1] is on record as “binds weakly”; in assay [2], “binds weakly”; in assay [7], “binds”; in assay [3], “binds”.
